From paper PMC10542451
These are yes or no findings as the source states them, for the method shown. Binding seen in cells or lysates may run through a third protein. Binding calls can cover weak binding; strength is not graded here.

Target: PADI3β (mouse peptidylarginine deiminase 3, alternative isoform) (mouse) (UniProt E9QAM4)
Assay: co-IP; triple transfection of PADI3α-HA, PADI3α-Flag and PADI3β-His into HEK293 cells, harvested 48 h after transfection, RIPA lysate; precipitated with anti-HA-tag magnetic beads or Dynabeads His-tag Isolation and pulldown; blotted for Flag

binding: binds
B1: PADI3α (mouse peptidylarginine deiminase 3, canonical isoform) (enzyme, UniProt Q9Z184 1-664)
chain: MSLQRIVRVSLEHPTSAVCVAGVETIVDIYGAVPEGTDMFEVYGTPGVDIYVSPSMERSRERADTRRWCFNKGLEIIVIMNSPSNDLNDSHVQIAYHSSREHLPLAYAVLYLTCVDITLDCDMNCADRQDRSFVDKRQWVWGPDGYGAILLVNCDRDNVDSNAQDNCDQYVRCLQDLEDMSVMVLRTQGPEALFEDHRLILHTSSCDAERARVFHVCGPEDSCESYKCVLGPDRMSYEVPRLKGYEERFFVEGLSFPDAGFPGLISFHVTLLDDSNEDFSETPIFTDTAVFRVAPWIMTPSTLPPLEVYVCRVRNNTCFVEAVEELARKAGCKLTICPQAENRNDRWIQDEMELGYVQAPHKTLPVVFDSPRNGELQGFPYKRILGLDFGYVTREPKDSSVSGLDSFGNLEVSPPVVANGKEYPLGRILIGGNLPGSRGRRVTQVVRNFLHAQKVQPLVELFVDWLAVGHVDEFLSFVPAPDGKGFRLLLASPGACFRLFQEKQKWGHGRSLLFEGVIGDRRVQTVSINQILNNQSLINFNKFAQSCIDWNREVLKRELGLAEGDIIDIPQLFKTEKRKAVAFFPDLVNMLVLGKHLGIPKPFGPIINGRCCLEEKVRSLLEPLGLHCTFIDDFTPYHMLHGEVHCGTNVRREPFAFKWWHMVP
